Results taken from PMC1473194.
No constants are given. Whether binding was seen depends on the method and setting. Binding seen in cells or lysates may run through a third protein. Some entries that bind do so weakly or less than the wild type. For some of these results: Tags and fused reporters may be left off the sequences shown.

Sequences of proteins named here, by UniProt entry; tags and fusion partners are left off.
UniProt Q03347: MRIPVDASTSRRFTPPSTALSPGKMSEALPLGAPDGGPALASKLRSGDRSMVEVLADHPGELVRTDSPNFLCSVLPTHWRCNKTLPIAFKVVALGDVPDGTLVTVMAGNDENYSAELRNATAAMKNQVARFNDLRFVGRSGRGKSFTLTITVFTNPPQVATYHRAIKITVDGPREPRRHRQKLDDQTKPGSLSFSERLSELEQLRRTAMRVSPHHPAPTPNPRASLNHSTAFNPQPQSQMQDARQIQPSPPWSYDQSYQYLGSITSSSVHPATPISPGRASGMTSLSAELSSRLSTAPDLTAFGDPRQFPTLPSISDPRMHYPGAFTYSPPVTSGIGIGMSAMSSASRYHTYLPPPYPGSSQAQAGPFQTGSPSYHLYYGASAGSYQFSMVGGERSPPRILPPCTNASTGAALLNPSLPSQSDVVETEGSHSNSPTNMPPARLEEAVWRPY
UniProt P06803: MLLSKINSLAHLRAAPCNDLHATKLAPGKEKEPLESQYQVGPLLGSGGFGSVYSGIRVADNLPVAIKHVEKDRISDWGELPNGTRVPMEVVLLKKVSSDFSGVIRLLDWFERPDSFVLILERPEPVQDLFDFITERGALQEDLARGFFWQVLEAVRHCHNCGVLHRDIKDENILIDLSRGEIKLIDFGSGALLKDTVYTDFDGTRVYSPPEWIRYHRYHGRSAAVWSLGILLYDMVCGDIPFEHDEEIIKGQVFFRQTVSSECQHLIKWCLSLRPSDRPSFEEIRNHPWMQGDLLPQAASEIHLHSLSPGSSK

Experiments:
[1] = target: T1, GST-B19 fusion protein (amino acids 264-404 of human RUNX3 fused to GST) (human) (UniProt Q13761); test: pull-down; GST pull-down with bacterially produced GST-B19 and in vitro translated 35S-labeled Pim-1; data not shown; only the target purified
T1 sequence: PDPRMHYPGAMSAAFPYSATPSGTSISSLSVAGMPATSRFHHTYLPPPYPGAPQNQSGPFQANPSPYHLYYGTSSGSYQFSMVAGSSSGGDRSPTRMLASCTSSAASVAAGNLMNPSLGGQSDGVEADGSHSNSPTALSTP

[2] = target: MYC-tagged Runx1 (pAMC-Runx1) (murine) (UniProt Q03347); test: co-IP; COS-7 cells transiently transfected; lysate in co-IP buffer (50 mM Tris-HCl pH 7.5, 150 mM NaCl, 0.1 mM EDTA, 0.5 % NP-40, 20% glycerol); immunoprecipitation with anti-MYC on protein G-sepharose at 4°C, blot with anti-Pim-1
[3] = target: MYC-tagged Runx3 (pAMC-Runx3) (murine) (UniProt Q64131); test: as above
[4] = target: FLAG-tagged Runx1 (pFLAG-CMV-2) (murine) (UniProt Q03347); test: co-IP; COS-7 cells transiently transfected; immunoprecipitation with M2 anti-FLAG on protein G-sepharose at 4°C, blot with anti-Pim-1; data not shown

Q: For “in vitro translated 35S-labeled Pim-1 protein (from UniProt P06803 1-313) (enzyme)”, which binding [1] is on record?
A: binds

Q: For “Pim-1 expressed from pSV-pim-1 in COS-7 cells (from UniProt P06803 1-313) (enzyme)”, which binding [2] is on record?
A: binds

Q: And the binding [3]?
A: binds

Q: What about the binding [4] of the same substance?
A: binds
